Laboratory results published in patent US11607458B2 (Georgia State University Research Foundation, Inc, priority 2017, dated 2023).
Values joined by “and” are separate entries in the source; they are usually repeats but may differ in a detail not shown here. Equal values may be shown once.

Assay: Release of the parent drug (Dox / dansyl amine) from prodrugs treated with alkynes, monitored by HPLC
Assay type: physicochemical
Conditions: PBS 10% DMSO
Experimental: Standard curve of Dox concentration measurement. To four HPLC vials containing 0.9 mL PBS (size: 1.5 mL) were added 25, 15, 20, 10 μL Dox stock solution (1 mM) respectively. Then defined amounts DMSO (975, 985, 980, and 990 μL) were added to each vial to afford final concentration of four vials were 25, 15, 20, 10 μM in PBS (10% DMSO), respectively. The samples were analyzed with HPLC method A. Dox retention time: 4.0 min.
Standard curve for DA concentration measurement. To four HPLC vials containing 0.9 mL PBS (size: 1.5 mL) were added 25, 15, 20, 10 μL Dox stock solution (1 mM) respectively. Then defined amounts DMSO (975, 985, 980, and 990 μL) were added to each vial to afford final concentration of four vials were 25, 15, 20, 10 μM in PBS (10% DMSO), respectively. The samples were analyzed with HPLC method B. DA retention time: 5.8 min.
General procedures HPLC studies of reaction kinetics. To three 20-ml vials with 9 mL PBS were added a solution of tetrazine prodrug (500 μL, 500 μM). 350 μL, 300 μL and 250 μL DMSO were added to vial respectively, and then 150 μL, 200 μL and 250 μL of the alkyne solution (50 mM in DMSO) were added to the vials to afford final concentrations of alkyne 0.75 mM, 1 mM and 1.25 mM in PBS (10% DMSO, 25 μM prodrug) respectively. The reaction was stirred at r.t or 37° C. respectively. Every 30 min about 500 μL reaction mixtures were taken out and 20 μL of them were injected into the HPLC by the autosampler; the rest of them were poured back to the reaction mixture. (Note: In the cases of prodrugs 1d or 1b reacting with alkyne 2d at 37° C., the final concentrations of 2d in the kinetic studies were 250 μM, 300 μM and 350 μM).
Results. The results from the reaction kinetics studies of the tetrazine-cyclooctyne system are summarized below in Table 4. Prodrugs 1d or 1b (25 μM) were treated with alkynes 2d, 2c ,2a, or 2b at different concentrations at room temperature (r.t.) or 37° C., respectively. The prodrug consumption and release of the parent drug were monitored by HPLC (Table 4).

[1] = alkyne 2d (1 mM), dansyl amine for 1d

| Compound | Dox Peak % within 48 h, at r.t (alkyne 2a) [%] | Dox Peak % within 48 h, at r.t (alkyne 2b, dansyl amine for 1d) [%] | Dox Peak % within 48 h, at r.t (alkyne 2c, dansyl amine for 1d, listed as lb) [%] | Dox Peak % within 48 h, at r.t [1] | Dox Peak % within 48 h, at r.t (alkyne 2d (1 mM), dansyl amine for 1d, listed as lb) [%] | Dox Peak % within 48 h, at r.t (alkyne 2c, dansyl amine for 1d) [%] |
| --- | --- | --- | --- | --- | --- | --- |
| C#CCOc1ccc(-c2nnc(C(=O)NC3CC(OC4CC(O)(C(=O)CO)Cc5c(O)c6c(c(O)c54)C(=O)c4c(OC)cccc4C6=O)OC(C)C3O)nn2)cc1 (stereo not drawn) [1b] | 80 ± 5 | 80 ± 5 | 85 ± 5 | 20% | 20 ± 5 |  |
| COc1cccc2c1C(=O)c1c(O)c3c(c(O)c1C2=O)CC(O)(C(=O)CO)CC3OC1CC(NC(=O)c2nnc(-c3ccc(OCc4cn(CCCCCCCCC[P+](c5ccccc5)(c5ccccc5)c5ccccc5)nn4)cc3)nn2)C(O)C(C)O1 (stereo not drawn) [1c] |  | 78 ± 6 |  |  |  |  |
| C#CCOc1ccc(-c2nnc(C(=O)NCCCOCCOCCOCCCNS(=O)(=O)c3cccc4c(N(C)C)cccc34)nn2)cc1 [1d] |  | 90 ± 3 |  | 60% and 60 ± 6% |  | 90 ± 5 |
